In this experiment the target is T7RNAPC (bacteriophage T7 (amplified from the BL21 (DE3) genome)). Description: split reporter; spontaneous reassembly of split T7 RNA polymerase without antigen: both fragments (unfused, or as NB fusions) expressed in a cell-free reaction from 5-20 nM plasmid, 0.05 or 0.1 nM pT7LacZ, LacZ activity read as A580.

Drawing on paper PMC11844732, this text covers binding for 2 molecules.

Where a chain is given by its changes, count along the chain named. No constants are given. Whether binding was seen depends on the method and setting. In cells and extracts the contact can be indirect. Some entries that bind do so weakly or less than the wild type.

B1: T7RNAPNev (domain or fragment)
chain: NTINIAKNDFSDIELAAIPLNTLADHYGERSARGQLALEHESYEMGEARFRKMFECQLKAGKVADNAAAKPLITTLLPKMIARINDWFEEVKAKRGRRPTAFKFLKEIKPEAVAYITIKTSLACLTSADNTTVQAVASAIGRTIEDEARFGRIRDLEAKHFKKNVEEQLNKRVGHVYK
Consider B1, for which the binding entry is reported as “binds”.

B2: T7RNAPN (wild type) (domain or fragment)
chain: B1 chain with L20F, S31L, G34E, C56R, K62E, R97K, K103Q, K106Q, S121T, T143A
Turning to B2, the binding result was “binds”.
